Data as given in the supplement of paper PMC10849652.
The other results are listed elsewhere or left out.

The chains behind the UniProt entries cited, without tags or fusion partners. Where a name states a change or a piece, a line headed by the entry shows the natural chain unless it says otherwise.
UniProt Q9BXW9: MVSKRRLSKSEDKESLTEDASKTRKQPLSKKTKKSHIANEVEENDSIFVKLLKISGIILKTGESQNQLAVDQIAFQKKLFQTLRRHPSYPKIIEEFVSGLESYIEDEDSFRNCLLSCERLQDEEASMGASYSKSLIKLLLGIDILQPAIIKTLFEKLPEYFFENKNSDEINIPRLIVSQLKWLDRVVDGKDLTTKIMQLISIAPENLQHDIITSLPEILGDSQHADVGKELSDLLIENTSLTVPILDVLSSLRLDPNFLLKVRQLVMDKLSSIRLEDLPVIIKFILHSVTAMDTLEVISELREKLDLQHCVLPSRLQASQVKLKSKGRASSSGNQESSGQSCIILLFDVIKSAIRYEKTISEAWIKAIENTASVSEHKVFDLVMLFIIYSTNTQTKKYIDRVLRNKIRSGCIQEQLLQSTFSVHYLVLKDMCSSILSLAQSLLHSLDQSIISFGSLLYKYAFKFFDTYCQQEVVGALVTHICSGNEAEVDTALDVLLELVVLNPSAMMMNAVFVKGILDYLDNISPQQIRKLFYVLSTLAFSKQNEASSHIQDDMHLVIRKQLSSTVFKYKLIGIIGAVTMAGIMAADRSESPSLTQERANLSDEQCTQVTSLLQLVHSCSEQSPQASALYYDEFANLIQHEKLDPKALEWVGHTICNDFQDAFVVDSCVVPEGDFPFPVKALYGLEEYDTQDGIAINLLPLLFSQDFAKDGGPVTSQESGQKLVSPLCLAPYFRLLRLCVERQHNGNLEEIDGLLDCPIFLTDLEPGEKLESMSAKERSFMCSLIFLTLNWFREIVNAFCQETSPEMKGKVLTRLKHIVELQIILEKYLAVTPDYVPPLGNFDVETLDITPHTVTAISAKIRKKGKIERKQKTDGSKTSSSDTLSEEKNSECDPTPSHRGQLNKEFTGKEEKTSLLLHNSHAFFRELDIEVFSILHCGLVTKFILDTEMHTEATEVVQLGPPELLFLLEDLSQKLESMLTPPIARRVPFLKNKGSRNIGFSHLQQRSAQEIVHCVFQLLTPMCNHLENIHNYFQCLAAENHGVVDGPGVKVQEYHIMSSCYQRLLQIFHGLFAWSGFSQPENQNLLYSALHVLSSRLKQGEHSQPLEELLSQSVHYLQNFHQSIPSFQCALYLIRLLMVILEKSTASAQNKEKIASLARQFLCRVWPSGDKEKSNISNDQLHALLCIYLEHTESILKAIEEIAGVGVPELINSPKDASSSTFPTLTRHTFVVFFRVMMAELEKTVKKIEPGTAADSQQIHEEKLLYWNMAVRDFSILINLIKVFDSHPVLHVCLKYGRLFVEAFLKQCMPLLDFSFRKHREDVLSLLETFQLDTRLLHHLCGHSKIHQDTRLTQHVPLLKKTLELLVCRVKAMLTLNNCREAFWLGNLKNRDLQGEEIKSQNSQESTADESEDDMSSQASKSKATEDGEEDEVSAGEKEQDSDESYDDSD
UniProt Q96HJ9: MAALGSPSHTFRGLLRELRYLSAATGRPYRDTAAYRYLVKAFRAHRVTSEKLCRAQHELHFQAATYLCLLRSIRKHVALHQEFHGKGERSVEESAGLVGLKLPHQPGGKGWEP
UniProt P22087: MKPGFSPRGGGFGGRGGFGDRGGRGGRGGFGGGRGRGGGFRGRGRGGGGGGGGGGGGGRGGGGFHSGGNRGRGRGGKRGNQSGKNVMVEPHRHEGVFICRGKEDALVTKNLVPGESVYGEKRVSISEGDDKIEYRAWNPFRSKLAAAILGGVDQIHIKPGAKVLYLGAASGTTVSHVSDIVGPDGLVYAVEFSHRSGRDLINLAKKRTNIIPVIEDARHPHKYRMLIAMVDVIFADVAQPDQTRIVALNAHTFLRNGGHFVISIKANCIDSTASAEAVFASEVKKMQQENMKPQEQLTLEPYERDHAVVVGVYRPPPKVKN
UniProt O95363: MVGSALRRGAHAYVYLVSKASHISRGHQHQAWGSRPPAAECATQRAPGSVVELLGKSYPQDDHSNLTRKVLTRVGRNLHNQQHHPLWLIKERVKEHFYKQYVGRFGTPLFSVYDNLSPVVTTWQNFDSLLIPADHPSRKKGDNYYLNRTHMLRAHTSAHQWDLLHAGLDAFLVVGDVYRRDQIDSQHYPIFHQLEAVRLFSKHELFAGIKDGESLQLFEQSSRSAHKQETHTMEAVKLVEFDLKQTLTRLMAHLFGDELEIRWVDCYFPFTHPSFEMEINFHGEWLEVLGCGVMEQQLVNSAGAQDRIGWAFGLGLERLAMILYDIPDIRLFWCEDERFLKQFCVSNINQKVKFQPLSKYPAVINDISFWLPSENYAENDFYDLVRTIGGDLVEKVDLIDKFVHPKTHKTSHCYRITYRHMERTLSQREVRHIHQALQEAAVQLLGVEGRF
UniProt P98173: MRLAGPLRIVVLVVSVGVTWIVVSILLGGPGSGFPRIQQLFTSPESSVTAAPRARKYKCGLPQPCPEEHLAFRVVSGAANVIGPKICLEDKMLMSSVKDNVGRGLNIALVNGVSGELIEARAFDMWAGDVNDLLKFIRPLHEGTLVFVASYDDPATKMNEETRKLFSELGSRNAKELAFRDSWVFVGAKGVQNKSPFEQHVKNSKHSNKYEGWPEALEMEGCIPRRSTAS
UniProt Q658Y4: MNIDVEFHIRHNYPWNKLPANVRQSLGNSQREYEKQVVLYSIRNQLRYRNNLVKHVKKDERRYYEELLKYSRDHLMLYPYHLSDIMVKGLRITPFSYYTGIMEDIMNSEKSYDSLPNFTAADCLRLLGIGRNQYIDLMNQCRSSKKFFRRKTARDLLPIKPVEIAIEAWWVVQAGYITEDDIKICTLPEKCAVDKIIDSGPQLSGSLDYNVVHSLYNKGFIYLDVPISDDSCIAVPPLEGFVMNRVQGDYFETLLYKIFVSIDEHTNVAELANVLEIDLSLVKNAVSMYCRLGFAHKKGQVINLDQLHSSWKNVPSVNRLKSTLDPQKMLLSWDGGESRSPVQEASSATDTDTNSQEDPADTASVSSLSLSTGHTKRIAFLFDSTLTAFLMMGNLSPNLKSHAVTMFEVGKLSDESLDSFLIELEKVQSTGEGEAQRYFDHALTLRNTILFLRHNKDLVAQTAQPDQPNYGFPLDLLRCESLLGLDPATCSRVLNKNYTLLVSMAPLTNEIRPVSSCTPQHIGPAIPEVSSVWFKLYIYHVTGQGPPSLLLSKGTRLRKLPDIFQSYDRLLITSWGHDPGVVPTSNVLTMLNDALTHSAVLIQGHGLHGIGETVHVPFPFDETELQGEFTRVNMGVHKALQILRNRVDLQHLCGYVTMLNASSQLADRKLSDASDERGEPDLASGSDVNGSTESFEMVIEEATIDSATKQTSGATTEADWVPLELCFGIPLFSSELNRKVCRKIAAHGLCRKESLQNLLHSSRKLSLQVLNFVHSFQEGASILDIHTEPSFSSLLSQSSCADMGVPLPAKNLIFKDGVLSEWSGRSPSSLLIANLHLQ
UniProt Q86UX7, whole entry, looked up: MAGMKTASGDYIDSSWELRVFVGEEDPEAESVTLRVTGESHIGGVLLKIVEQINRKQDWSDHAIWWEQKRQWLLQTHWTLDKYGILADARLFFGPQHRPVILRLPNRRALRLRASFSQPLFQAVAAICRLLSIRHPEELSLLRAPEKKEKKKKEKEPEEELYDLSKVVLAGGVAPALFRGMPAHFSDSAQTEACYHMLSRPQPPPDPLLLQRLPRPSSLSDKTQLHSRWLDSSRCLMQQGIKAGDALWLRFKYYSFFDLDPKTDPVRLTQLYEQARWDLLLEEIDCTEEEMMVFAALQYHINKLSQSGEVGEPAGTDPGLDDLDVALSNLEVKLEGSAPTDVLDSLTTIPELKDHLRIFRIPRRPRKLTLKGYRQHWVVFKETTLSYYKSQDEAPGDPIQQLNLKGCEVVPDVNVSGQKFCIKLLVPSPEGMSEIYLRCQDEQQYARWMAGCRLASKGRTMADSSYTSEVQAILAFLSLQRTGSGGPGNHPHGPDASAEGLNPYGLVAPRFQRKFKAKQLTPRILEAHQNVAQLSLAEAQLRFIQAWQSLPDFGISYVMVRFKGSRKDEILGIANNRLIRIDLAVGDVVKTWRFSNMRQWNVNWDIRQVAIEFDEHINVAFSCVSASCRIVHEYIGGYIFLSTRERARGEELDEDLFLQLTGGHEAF
UniProt Q9UK73, whole entry, looked up: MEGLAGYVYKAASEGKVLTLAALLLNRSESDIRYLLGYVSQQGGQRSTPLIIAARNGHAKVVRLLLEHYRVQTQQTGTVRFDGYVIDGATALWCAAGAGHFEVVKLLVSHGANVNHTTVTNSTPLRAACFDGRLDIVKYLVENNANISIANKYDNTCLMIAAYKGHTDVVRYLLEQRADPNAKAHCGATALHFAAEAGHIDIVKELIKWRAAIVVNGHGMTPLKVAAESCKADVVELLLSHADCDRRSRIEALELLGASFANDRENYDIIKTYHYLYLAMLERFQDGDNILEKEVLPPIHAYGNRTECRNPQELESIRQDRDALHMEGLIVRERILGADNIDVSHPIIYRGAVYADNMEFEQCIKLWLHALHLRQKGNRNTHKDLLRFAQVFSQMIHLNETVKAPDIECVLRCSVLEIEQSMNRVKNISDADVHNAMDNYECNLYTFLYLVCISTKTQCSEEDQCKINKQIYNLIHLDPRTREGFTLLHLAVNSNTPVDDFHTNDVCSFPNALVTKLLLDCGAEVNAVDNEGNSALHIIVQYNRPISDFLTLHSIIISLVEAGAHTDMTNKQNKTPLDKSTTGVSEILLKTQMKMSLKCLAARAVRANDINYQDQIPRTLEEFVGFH
UniProt P09038, whole entry, looked up: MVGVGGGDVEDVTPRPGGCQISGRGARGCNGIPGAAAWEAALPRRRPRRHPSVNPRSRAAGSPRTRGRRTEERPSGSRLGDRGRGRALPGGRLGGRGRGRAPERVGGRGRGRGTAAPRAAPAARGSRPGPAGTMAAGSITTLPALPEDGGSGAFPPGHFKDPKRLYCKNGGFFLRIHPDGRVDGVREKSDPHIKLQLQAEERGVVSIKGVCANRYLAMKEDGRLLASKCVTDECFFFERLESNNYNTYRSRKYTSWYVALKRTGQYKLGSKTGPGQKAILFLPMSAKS
UniProt P22830: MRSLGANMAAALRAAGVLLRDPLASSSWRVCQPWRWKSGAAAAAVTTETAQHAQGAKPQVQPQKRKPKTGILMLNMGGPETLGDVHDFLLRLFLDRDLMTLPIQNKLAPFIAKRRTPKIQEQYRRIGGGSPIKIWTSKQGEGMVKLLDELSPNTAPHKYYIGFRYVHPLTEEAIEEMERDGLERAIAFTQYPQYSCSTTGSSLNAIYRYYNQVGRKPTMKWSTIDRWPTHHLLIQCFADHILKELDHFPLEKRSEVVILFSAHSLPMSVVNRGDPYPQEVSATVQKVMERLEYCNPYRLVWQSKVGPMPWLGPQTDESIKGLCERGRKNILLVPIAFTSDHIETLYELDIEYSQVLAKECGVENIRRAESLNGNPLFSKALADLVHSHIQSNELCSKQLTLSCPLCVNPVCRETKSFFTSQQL
UniProt O95684: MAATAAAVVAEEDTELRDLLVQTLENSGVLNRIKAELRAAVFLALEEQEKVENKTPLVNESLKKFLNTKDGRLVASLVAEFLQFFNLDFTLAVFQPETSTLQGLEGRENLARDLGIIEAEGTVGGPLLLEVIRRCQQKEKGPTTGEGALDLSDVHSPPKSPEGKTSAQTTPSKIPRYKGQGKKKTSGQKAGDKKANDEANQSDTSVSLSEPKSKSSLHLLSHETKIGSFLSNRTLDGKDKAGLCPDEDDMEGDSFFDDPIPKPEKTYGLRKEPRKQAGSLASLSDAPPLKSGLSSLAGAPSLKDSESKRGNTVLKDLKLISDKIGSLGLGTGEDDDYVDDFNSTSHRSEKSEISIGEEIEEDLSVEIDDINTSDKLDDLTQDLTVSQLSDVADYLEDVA
UniProt Q00688: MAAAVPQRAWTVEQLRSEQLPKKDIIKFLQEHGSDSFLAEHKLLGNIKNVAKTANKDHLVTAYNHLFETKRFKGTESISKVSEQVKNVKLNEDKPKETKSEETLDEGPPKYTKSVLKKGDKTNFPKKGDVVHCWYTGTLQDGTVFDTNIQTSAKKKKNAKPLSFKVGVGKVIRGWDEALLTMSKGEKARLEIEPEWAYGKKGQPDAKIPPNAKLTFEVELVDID
UniProt Q14318: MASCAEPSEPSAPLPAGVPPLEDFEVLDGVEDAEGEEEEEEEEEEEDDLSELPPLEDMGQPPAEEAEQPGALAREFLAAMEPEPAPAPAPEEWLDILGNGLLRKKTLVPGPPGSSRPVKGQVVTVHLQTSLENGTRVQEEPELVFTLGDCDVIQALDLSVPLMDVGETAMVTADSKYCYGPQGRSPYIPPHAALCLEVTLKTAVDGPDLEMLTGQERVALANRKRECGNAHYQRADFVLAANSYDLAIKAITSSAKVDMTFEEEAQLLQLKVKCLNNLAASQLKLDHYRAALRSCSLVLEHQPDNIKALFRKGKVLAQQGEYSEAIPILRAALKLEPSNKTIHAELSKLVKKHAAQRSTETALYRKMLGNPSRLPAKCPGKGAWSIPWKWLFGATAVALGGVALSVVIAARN

What was measured:
Test in all cases: log2 fold change, soluble protein after heating vs DMSO (PISA); higher = thermal stabilisation; K562 cells, 10 uM, 30 min; active = over 0.2 and 3.5 SD of the protein, either way, in both replicates (recomputed)
[1] = compound: CC1=C(C=C(C=C1)NC(=O)C2=CC(=CC=C2)C(C)(C)C#N)NC3=CC4=C(C=C3)N=CN(C4=O)C
Outline: (§1)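 K562 cells (2×10^6 cells/mL) were treated with 10 μM compound for 30 min, and aliquots were heated for 3 min over 48°C-58°C. Pooled aliquots were extracted in PBS with 0.5% NP-40 at 4°C, and the supernatant after 21,000xg for 90 min was measured by TMTpro 16plex LC-MS/MS with channel sums equalised. Reported thermal stability, relative to control samples and from duplicates, is a log2 fold change.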

[2] = compound: CC1=C(C=C(C=C1)NC(=O)C2=CC(=CC=C2)N(C)C)NC(=O)C3=CC=C(C=C3)O
Outline: as §1

[3] = compound: CC1=CC=C(C=C1)SC2=C3C=C(SC3=CN=C2)C(=O)N
Outline: as §1

[4] = compound: CC1=NC(=CC=C1)C2=C(N=C(N2)C(C)(C)C)C3=CC4=NC=CN=C4C=C3
Outline: as §1

[5] = compound: CCCCN(Cc1ccc(C(=O)NO)cc1)C(=O)Nc1ccccc1 [Nexturastat A]
Outline: as §1

[6] = compound: CCCS(=O)(=O)Nc1ccc(F)c(C(=O)c2c[nH]c3ncc(-c4ccc(Cl)cc4)cc23)c1F [vemurafenib]
Outline: as §1

[7] = compound: CCCS(=O)(=O)Nc1ccc(F)c(C(=O)c2c[nH]c3ncc(Cl)cc23)c1F
Outline: as §1

[8] = compound: CCCc1cc(C)[nH]c(=O)c1CNC(=O)c1cc(-c2ccnc(N3CCN(C)CC3)c2)cc2c1cnn2C(C)C
Outline: as §1

[9] = compound: CCN(CC)Cc1ccc2cc(COC(=O)Nc3ccc(C(=O)NO)cc3)ccc2c1 [givinostat]
Outline: as §1

[10] = compound: CCN(CCCOc1ccc2c(Nc3cc(CC(=O)Nc4cccc(F)c4)[nH]n3)ncnc2c1)CCOP(=O)(O)O [barasertib]
Outline: as §1

[11] = compound: CC[C@@H]1C(=O)N(C)c2cnc(Nc3ccc(C(=O)NC4CCN(C)CC4)cc3OC)nc2N1C1CCCC1
Outline: as §1

[12] = compound: CC[C@@H]1C(=O)N(C)c2cnc(Nc3ccc(C(=O)N[C@H]4CC[C@H](N5CCN(CC6CC6)CC5)CC4)cc3OC)nc2N1C(C)C [volasertib]
Outline: as §1

[13] = compound: CC[C@H](C)N1C=C(C2=C(C=C(C=C21)C3=CN=C(C=C3)N4CCNCC4)C(=O)NCC5=C(C=C(NC5=O)C)C)C
Outline: as §1

[14] = compound: CC[C@H](C)[C@@H](C(=O)N[C@@H]([C@@H](C)O)C(=O)N[C@@H](CC(C)C)C(=O)[C@]1(CO1)C)NC(=O)[C@H]([C@@H](C)CC)N(C)C(=O)C [epoxomicin]
Outline: as §1

[15] = compound: CCn1cc(-c2ccnc3[nH]c(-c4cccc(CN(C)C)c4)cc23)c(-c2ccc(NC(=O)N(C)C)cc2)n1
Outline: as §1

[16] = compound: CN(C)CC(=O)Nc1ccc2[nH]c(=O)c3ccccc3c2c1
Outline: as §1

[17] = compound: CN1C2=C(C3=C1C(=O)N(N=C3)CC4=CC(=CC=C4)N)SC(=C2)S(=O)C
Outline: as §1

[18] = compound: CN1CCC(CNc2ccc3ncc(-c4cccc(OC(F)(F)F)c4)n3n2)CC1
Outline: as §1

[19] = compound: CCn1c(C(=O)N(C2CC2)C2CC2)cc2c3c(ncn3C)c(Nc3cc(C)n(C)n3)nc21
Outline: as §1

[20] = compound: CN(CCOC1=CC=C(C=C1)C[C@H]2C(=O)NC(=O)S2)C3=CC=CC=N3 (racemic) [rosiglitazone]
Outline: as §1

Target | log2 fold change [1] | log2 fold change [2] | log2 fold change [3] | log2 fold change [4] | log2 fold change [5] | log2 fold change [6] | log2 fold change [7] | log2 fold change [8] | log2 fold change [9] | log2 fold change [10] | log2 fold change [11] | log2 fold change [12] | log2 fold change [13] | log2 fold change [14] | log2 fold change [15] | log2 fold change [16] | log2 fold change [17] | log2 fold change [18] | log2 fold change [19] | log2 fold change [20]
FANCD2 isoform 1 (UniProt Q9BXW9) | inactive: 0.003 | inactive: -0.007 | inactive: 0.027 | inactive: -0.035 | inactive: -0.09 | inactive: 0.033 | inactive: 0.099 | inactive: -0.031 | inactive: 0.017 | inactive: 0.043 | inactive: -0.229 | inactive: -0.251 | inactive: 0.118 | inactive: -0.307 | inactive: -0.055 | inactive: 0.026 | inactive: -0.009 | inactive: -0.233 | – | –
FMC1 (UniProt Q96HJ9) | inactive: -0.036 | inactive: -0.029 | inactive: 0.027 | inactive: 0.004 | inactive: -0.038 | inactive: -0.065 | inactive: 0.014 | inactive: -0.074 | inactive: -0.051 | inactive: 0.022 | inactive: 0.04 | inactive: 0.102 | inactive: -0.039 | inactive: 0.059 | inactive: 0.046 | inactive: -0.057 | inactive: -0.01 | inactive: -0.02 | – | –
FBH1 isoform 2 (UniProt Q8NFZ0) | inactive: -0.115 | inactive: -0.039 | inactive: 0.023 | inactive: -0.154 | inactive: 0.076 | inactive: 0.119 | inactive: 0.014 | inactive: -0.439 | inactive: 0.027 | inactive: 0.004 | inactive: 0.009 | inactive: -0.127 | inactive: -0.009 | inactive: 0.182 | inactive: 0.09 | inactive: 0.1 | – | inactive: -0.01 | inactive: 0.028 | inactive: -0.068
FBL (UniProt P22087) | inactive: -0.039 | inactive: 0.062 | inactive: -0.146 | inactive: -0.077 | inactive: 0.243 | inactive: -0.11 | inactive: -0.058 | inactive: 0.165 | inactive: 0.138 | inactive: -0.106 | inactive: 0.283 | inactive: 0.151 | inactive: -0.034 | inactive: -0.396 | inactive: 0.184 | inactive: -0.143 | inactive: 0.359 | inactive: 0.34 | – | –
FARS2 (UniProt O95363) | inactive: 0.012 | inactive: -0.015 | inactive: -0.032 | inactive: 0.078 | inactive: 0.044 | inactive: 0.032 | inactive: 0.01 | inactive: -0.087 | inactive: -0.019 | inactive: 0.035 | inactive: 0.01 | inactive: -0.172 | inactive: 0.109 | inactive: -0.034 | inactive: -0.052 | inactive: -0.036 | inactive: -0.002 | active: -0.319 | – | –
FAM3A (UniProt P98173) | inactive: -0.022 | inactive: 0.012 | inactive: -0.005 | inactive: 0.003 | active: -0.304 | inactive: 0.015 | inactive: 0.013 | inactive: -0.031 | inactive: -0.001 | inactive: 0.014 | inactive: 0.024 | inactive: -0.11 | inactive: -0.02 | inactive: 0.029 | inactive: 0.066 | inactive: 0.019 | inactive: -0.023 | inactive: -0.128 | – | –
FAM91A1 (UniProt Q658Y4) | inactive: 0.035 | inactive: 0.034 | inactive: -0.036 | inactive: -0.048 | active: 0.286 | inactive: -0.055 | inactive: 0.051 | inactive: 0.07 | inactive: 0.024 | inactive: 0.06 | inactive: 0.062 | inactive: 0.221 | inactive: -0.007 | active: -0.675 | inactive: -0.015 | inactive: -0.003 | inactive: 0.001 | active: 0.233 | – | –
FERMT3 (UniProt Q86UX7) | inactive: 0.019 | inactive: -0.024 | inactive: 0.037 | inactive: 0.054 | inactive: -0.013 | inactive: 0.036 | inactive: 0.083 | inactive: 0.03 | inactive: 0.048 | inactive: 0.019 | inactive: -0.07 | active: -0.262 | inactive: 0.053 | inactive: 0.019 | inactive: -0.04 | inactive: 0.045 | inactive: -0.021 | inactive: -0.149 | – | –
FLAD1 (UniProt Q8NFF5) | inactive: -0.182 | inactive: -0.025 | inactive: -0.015 | inactive: 0.024 | inactive: 0.01 | inactive: -0.043 | inactive: -0.016 | inactive: -0.018 | inactive: -0.006 | inactive: 0.03 | inactive: 0.048 | inactive: 0.04 | inactive: 0.032 | inactive: -0.014 | inactive: -0.115 | inactive: 0.043 | inactive: -0.04 | inactive: -0.007 | inactive: -0.01 | inactive: 0.002
FAT3 isoform 1 (UniProt Q8TDW7) | inactive: 0.001 | inactive: 0.558 | inactive: 0.119 | inactive: 0.068 | inactive: 0.157 | inactive: -0.054 | inactive: -0.054 | inactive: -0.128 | inactive: 0.187 | inactive: -0.095 | inactive: -0.044 | inactive: -0.049 | inactive: -0.082 | inactive: -0.06 | – | inactive: -0.133 | inactive: 0.077 | – | inactive: 0.011 | inactive: 0.007
FEM1B (UniProt Q9UK73) | inactive: -0.036 | inactive: 0.023 | inactive: 0.019 | inactive: -0.039 | inactive: 0.102 | inactive: -0.004 | inactive: -0.012 | inactive: -0.025 | inactive: 0.072 | inactive: 0.049 | inactive: -0.01 | inactive: 0.051 | inactive: -0.03 | inactive: 0.122 | inactive: 0.103 | inactive: -0.044 | inactive: -0.026 | inactive: -0.058 | inactive: -0.014 | inactive: 0.012
FGF2 (UniProt P09038) | inactive: -0.06 | inactive: 0.163 | inactive: 0.106 | inactive: -0.032 | inactive: 0.101 | inactive: -0.033 | inactive: -0.059 | inactive: -0.039 | inactive: 0.023 | inactive: -0.039 | inactive: 0.042 | inactive: 0.024 | inactive: -0.038 | inactive: -0.093 | inactive: -0.127 | inactive: 0.031 | inactive: -0.076 | inactive: 0.149 | inactive: -0.051 | inactive: -0.064
FECH isoform 2 (UniProt P22830) | inactive: 0.45 | inactive: 0.162 | inactive: -0.16 | inactive: -0.006 | inactive: -0.123 | inactive: 0.022 | inactive: -0.167 | inactive: 0.367 | inactive: -0.238 | inactive: -0.049 | inactive: 0.399 | inactive: 0.368 | inactive: 0.037 | inactive: -0.088 | inactive: 0.203 | inactive: 0.001 | inactive: -0.123 | inactive: 0.163 | – | –
FGFR1OP (UniProt O95684) | inactive: 0.018 | inactive: 0.016 | inactive: 0.008 | inactive: -0.025 | inactive: 0.017 | inactive: -0.004 | inactive: 0.059 | inactive: 0.006 | inactive: 0.048 | inactive: -0.016 | inactive: 0.017 | inactive: -0.046 | inactive: 0.001 | inactive: -0.001 | inactive: 0.012 | inactive: 0.002 | inactive: -0.051 | inactive: 0.087 | inactive: -0.008 | inactive: 0.023
FKBP3 (UniProt Q00688) | inactive: 0.024 | inactive: 0 | inactive: 0.009 | inactive: 0.122 | inactive: -0.002 | inactive: -0.015 | inactive: -0.041 | inactive: -0.013 | inactive: -0.023 | inactive: -0.02 | inactive: 0.006 | inactive: 0.075 | inactive: 0.03 | inactive: 0.037 | inactive: -0.001 | inactive: 0.001 | inactive: -0.065 | inactive: 0.015 | – | –
FLNA (UniProt P21333) | inactive: -0.03 | inactive: -0.049 | inactive: 0.015 | inactive: 0.006 | inactive: 0.092 | inactive: 0.021 | inactive: 0.075 | inactive: 0.044 | inactive: 0.092 | inactive: 0.019 | inactive: -0.121 | active: -0.375 | inactive: 0.078 | inactive: 0.063 | inactive: -0.004 | inactive: 0.029 | inactive: 0.052 | inactive: -0.12 | – | –
FKBP8 isoform 2 (UniProt Q14318) | inactive: 0.057 | inactive: -0.022 | inactive: 0.05 | inactive: -0.038 | inactive: 0.205 | inactive: 0.009 | inactive: 0.054 | inactive: 0.105 | inactive: 0.117 | inactive: 0.086 | inactive: -0.052 | inactive: -0.294 | inactive: 0.049 | inactive: -0.121 | inactive: 0.018 | inactive: 0.015 | inactive: 0.2 | inactive: -0.085 | inactive: -0.05 | inactive: 0.003

Record cards, from the list above. Values in the order: log2 fold change [1] | log2 fold change [2] | log2 fold change [3] | log2 fold change [4] | log2 fold change [5] | log2 fold change [6] | log2 fold change [7] | log2 fold change [8] | log2 fold change [9] | log2 fold change [10] | log2 fold change [11] | log2 fold change [12] | log2 fold change [13] | log2 fold change [14] | log2 fold change [15] | log2 fold change [16] | log2 fold change [17] | log2 fold change [18] | log2 fold change [19] | log2 fold change [20]
FAM91A1 (UniProt Q658Y4) reads inactive: 0.035 | inactive: 0.034 | inactive: -0.036 | inactive: -0.048 | active: 0.286 | inactive: -0.055 | inactive: 0.051 | inactive: 0.07 | inactive: 0.024 | inactive: 0.06 | inactive: 0.062 | inactive: 0.221 | inactive: -0.007 | active: -0.675 | inactive: -0.015 | inactive: -0.003 | inactive: 0.001 | active: 0.233 | – | –
FARS2 (UniProt O95363) reads inactive: 0.012 | inactive: -0.015 | inactive: -0.032 | inactive: 0.078 | inactive: 0.044 | inactive: 0.032 | inactive: 0.01 | inactive: -0.087 | inactive: -0.019 | inactive: 0.035 | inactive: 0.01 | inactive: -0.172 | inactive: 0.109 | inactive: -0.034 | inactive: -0.052 | inactive: -0.036 | inactive: -0.002 | active: -0.319 | – | –
